No constants are given. Whether binding was seen depends on the method and setting. In cells and extracts the contact can be indirect. These calls come from enrichment with a bait or labelling near it, and not all partners need be listed.

By UniProt entry, the sequences of proteins in these tests, tags left out.
UniProt P02340: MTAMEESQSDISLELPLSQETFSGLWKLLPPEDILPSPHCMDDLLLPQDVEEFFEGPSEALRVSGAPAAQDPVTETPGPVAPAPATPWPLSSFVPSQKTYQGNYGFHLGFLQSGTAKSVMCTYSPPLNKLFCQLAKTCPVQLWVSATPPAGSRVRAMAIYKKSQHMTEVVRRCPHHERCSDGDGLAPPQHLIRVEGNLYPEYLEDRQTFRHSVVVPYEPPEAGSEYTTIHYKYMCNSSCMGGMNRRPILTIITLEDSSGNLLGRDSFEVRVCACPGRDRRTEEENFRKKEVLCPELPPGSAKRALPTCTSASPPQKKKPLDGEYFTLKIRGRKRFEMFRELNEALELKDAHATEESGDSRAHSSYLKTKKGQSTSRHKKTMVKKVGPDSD
UniProt P70399: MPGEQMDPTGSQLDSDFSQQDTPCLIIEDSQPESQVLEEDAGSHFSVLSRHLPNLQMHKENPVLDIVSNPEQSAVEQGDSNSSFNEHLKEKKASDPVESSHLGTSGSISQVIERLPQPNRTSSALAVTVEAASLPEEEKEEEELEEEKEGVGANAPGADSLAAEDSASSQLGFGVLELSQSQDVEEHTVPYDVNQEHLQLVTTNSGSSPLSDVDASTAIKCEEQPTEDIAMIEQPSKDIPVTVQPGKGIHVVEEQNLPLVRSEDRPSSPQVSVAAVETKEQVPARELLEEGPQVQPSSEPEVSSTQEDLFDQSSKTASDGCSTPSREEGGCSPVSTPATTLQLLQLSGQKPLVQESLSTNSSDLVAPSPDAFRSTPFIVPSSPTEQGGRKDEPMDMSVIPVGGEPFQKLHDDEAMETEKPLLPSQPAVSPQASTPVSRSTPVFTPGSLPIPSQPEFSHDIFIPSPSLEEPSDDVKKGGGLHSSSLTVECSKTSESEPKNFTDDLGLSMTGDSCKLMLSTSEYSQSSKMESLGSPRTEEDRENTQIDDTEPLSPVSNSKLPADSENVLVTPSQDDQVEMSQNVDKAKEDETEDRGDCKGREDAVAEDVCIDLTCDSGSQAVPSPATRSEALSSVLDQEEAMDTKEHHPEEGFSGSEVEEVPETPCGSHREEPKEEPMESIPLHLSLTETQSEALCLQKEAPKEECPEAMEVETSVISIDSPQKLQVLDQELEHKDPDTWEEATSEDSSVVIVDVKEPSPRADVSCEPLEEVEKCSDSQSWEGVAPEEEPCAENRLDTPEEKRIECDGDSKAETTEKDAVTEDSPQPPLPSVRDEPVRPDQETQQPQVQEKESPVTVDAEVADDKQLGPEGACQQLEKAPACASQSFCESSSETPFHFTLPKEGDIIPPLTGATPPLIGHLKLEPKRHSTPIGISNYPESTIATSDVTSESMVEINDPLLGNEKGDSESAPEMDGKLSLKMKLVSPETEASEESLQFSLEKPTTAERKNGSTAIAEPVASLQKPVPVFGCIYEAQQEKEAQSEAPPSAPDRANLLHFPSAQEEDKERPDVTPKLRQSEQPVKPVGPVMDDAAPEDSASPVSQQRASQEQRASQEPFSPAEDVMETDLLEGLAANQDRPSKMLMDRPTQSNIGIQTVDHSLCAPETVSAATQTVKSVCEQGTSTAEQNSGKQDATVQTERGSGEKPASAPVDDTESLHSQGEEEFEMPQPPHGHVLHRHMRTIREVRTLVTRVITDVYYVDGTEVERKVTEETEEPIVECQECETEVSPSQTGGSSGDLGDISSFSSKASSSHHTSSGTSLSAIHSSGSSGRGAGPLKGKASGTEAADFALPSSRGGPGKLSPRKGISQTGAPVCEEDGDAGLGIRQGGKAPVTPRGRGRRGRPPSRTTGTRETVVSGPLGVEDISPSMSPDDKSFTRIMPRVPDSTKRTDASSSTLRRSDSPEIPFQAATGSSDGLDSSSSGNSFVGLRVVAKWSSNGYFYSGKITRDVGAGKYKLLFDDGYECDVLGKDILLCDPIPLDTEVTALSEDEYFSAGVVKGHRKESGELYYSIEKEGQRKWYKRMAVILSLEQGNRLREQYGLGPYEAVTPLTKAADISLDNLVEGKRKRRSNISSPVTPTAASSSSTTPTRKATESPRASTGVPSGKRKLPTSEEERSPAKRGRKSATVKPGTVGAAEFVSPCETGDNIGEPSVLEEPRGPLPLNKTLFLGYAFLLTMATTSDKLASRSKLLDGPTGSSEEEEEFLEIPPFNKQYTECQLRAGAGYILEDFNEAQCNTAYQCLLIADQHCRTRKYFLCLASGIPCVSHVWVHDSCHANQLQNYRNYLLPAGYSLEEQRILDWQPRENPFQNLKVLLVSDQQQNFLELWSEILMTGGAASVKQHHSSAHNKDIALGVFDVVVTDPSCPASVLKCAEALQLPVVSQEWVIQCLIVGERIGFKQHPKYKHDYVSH

The assay deals with Tandem Affinity Purification (TAP)-tagged p53 (TAP-p53), mouse (mouse) (UniProt P02340). As to the kind of experiment: tandem affinity purification of TAP-p53 from doxorubicin-treated mES cells, SDS-PAGE, mass spectrometry.

On to “p53-binding protein 1, mouse (from UniProt P70399 1-1969)”, for which the binding entry is “binds”.

(Values after patent US20100189725A1.)
